Assay results published in the supplement of paper PMC8728848.
The other results are listed elsewhere or left out.

Columns and labels:
Assay in all cases: glycan array binding signal (z-score within array); higher = stronger binding
Conditions in all cases: glycan notation: IUPAC condensed, linker removed
[1] = molecular target: Neu5Ac(a2-3)Gal(b1-3)GlcNAc(b1-3)GalNAc
How it was run: (§1)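 The binding signal is a Z-score computed within each array. Data were drawn from 3228 arrays in the Consortium for Functional Glycomics database, restricted to those with a known protein sequence. Scores were averaged over arrays of the same protein sequence at different concentrations or buffers, and over linkers, and negative values can be taken as non-binding.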

[2] = molecular target: Neu5Ac(a2-3)Gal(b1-3)GlcNAc(b1-4)Gal(b1-4)Glc
How it was run: as §1

[3] = molecular target: Neu5Ac(a2-3)Gal(b1-3)GlcNAc(b1-6)GalNAc
How it was run: as §1

[4] = molecular target: Neu5Ac(a2-3)Gal(b1-3)GlcNAc6S
How it was run: as §1

[5] = molecular target: Neu5Ac(a2-3)Gal(b1-3)[Fuc(a1-4)]GlcNAc
How it was run: as §1

[6] = molecular target: Neu5Ac(a2-3)Gal(b1-3)[Fuc(a1-4)]GlcNAc(b1-3)Gal(b1-3)[Fuc(a1-4)]GlcNAc
How it was run: as §1

[7] = molecular target: Neu5Ac(a2-3)Gal(b1-3)[Fuc(a1-4)]GlcNAc(b1-3)Gal(b1-4)[Fuc(a1-3)]GlcNAc
How it was run: as §1

[8] = molecular target: Neu5Ac(a2-3)Gal(b1-3)[GlcNAc(b1-6)]GalNAc
How it was run: as §1

[9] = molecular target: Neu5Ac(a2-3)Gal(b1-3)[Neu5Ac(a2-3)Gal(b1-4)]GlcNAc
How it was run: as §1

[10] = molecular target: Neu5Ac(a2-3)Gal(b1-3)[Neu5Ac(a2-6)]GalNAc
How it was run: as §1

[11] = molecular target: Neu5Ac(a2-3)Gal(b1-3)[Neu5Ac(a2-6)]GlcNAc(b1-3)[Fuc(a1-3)[Gal(b1-4)]GlcNAc(b1-6)]Gal(b1-4)Glc
How it was run: as §1

[12] = molecular target: Neu5Ac(a2-3)Gal(b1-3)]Neu5Ac(a2-3)Gal(b1-4)]GlcNAc
How it was run: as §1

Neu5Ac(a2-3)Gal(b1-4)Glc = molecular target: Neu5Ac(a2-3)Gal(b1-4)Glc
How it was run: as §1

[13] = molecular target: Neu5Ac(a2-3)Gal(b1-4)GlcNAc
How it was run: as §1

[14] = molecular target: Neu5Ac(a2-3)Gal(b1-4)GlcNAc(b1-2)Man
How it was run: as §1

[15] = molecular target: Neu5Ac(a2-3)Gal(b1-4)GlcNAc(b1-2)Man(a1-3)[GlcNAc(b1-2)Man(b1-4)GlcNAc(b1-2)Man(a1-6)]Man(b1-4)GlcNAc(b1-4)GlcNAc
How it was run: as §1

[16] = molecular target: Neu5Ac(a2-3)Gal(b1-4)GlcNAc(b1-2)Man(a1-3)[GlcNAc(b1-4)][Neu5Ac(a2-3)Gal(b1-4)GlcNAc(b1-2)Man(a1-6)]Man(b1-4)GlcNAc(b1-4)GlcNAc
How it was run: as §1

[17] = molecular target: Neu5Ac(a2-3)Gal(b1-4)GlcNAc(b1-2)Man(a1-3)[Neu5Ac(a2-3)Gal(b1-4)GlcNAc(b1-2)Man(a1-6)]Man(b1-4)GlcNAc(b1-4)GlcNAc
How it was run: as §1

[18] = molecular target: Neu5Ac(a2-3)Gal(b1-4)GlcNAc(b1-2)Man(a1-3)[Neu5Ac(a2-3)Gal(b1-4)GlcNAc(b1-2)Man(a1-6)]Man(b1-4)GlcNAc(b1-4)[Fuc(a1-6)]GlcNAc
How it was run: as §1

[19] = molecular target: Neu5Ac(a2-3)Gal(b1-4)GlcNAc(b1-2)Man(a1-3)[Neu5Ac(a2-6)Gal(b1-4)GlcNAc(b1-2)Man(a1-6)]Man(b1-4)GlcNAc(b1-4)GlcNAc
How it was run: as §1

[20] = molecular target: Neu5Ac(a2-3)Gal(b1-4)GlcNAc(b1-2)[Neu5Ac(a2-3)Gal(b1-4)GlcNAc(b1-4)]Man(a1-3)[GlcNAc(b1-4)][Neu5Ac(a2-3)Gal(b1-4)GlcNAc(b1-2)[Neu5Ac(a2-3)Gal(b1-4)GlcNAc(b1-6)]Man(a1-6)]Man(b1-4)GlcNAc(b1-4)GlcNAc
How it was run: as §1

[21] = molecular target: Neu5Ac(a2-3)Gal(b1-4)GlcNAc(b1-2)[Neu5Ac(a2-3)Gal(b1-4)GlcNAc(b1-4)]Man(a1-3)[GlcNAc(b1-4)][Neu5Ac(a2-3)Gal(b1-4)GlcNAc(b1-4)Man(a1-6)]Man(b1-4)GlcNAc(b1-4)GlcNAc
How it was run: as §1

[22] = molecular target: Neu5Ac(a2-3)Gal(b1-4)GlcNAc(b1-2)[Neu5Ac(a2-3)Gal(b1-4)GlcNAc(b1-6)]Man(a1-6)[Neu5Ac(a2-3)Gal(b1-4)GlcNAc(b1-2)Man(a1-3)]Man(b1-4)GlcNAc(b1-4)GlcNAc
How it was run: as §1

[23] = molecular target: Neu5Ac(a2-3)Gal(b1-4)GlcNAc(b1-2)[Neu5Ac(a2-3)Gal(b1-4)GlcNAc(b1-6)]Man(a1-6)[Neu5Ac(a2-3)Gal(b1-4)GlcNAc(b1-2)Man(a1-3)][GlcNAc(b1-4)]Man(b1-4)GlcNAc(b1-4)GlcNAc
How it was run: as §1

[24] = molecular target: Neu5Ac(a2-3)Gal(b1-4)GlcNAc(b1-3)Gal
How it was run: as §1

[25] = molecular target: Neu5Ac(a2-3)Gal(b1-4)GlcNAc(b1-3)Gal(b1-3)GlcNAc
How it was run: as §1

[26] = molecular target: Neu5Ac(a2-3)Gal(b1-4)GlcNAc(b1-3)Gal(b1-4)GlcNAc
How it was run: as §1

[27] = molecular target: Neu5Ac(a2-3)Gal(b1-4)GlcNAc(b1-3)Gal(b1-4)GlcNAc(b1-2)Man(a1-3)[Neu5Ac(a2-3)Gal(b1-4)GlcNAc(b1-3)Gal(b1-4)GlcNAc(b1-2)Man(a1-6)]Man(b1-4)GlcNAc(b1-4)GlcNAc
How it was run: as §1

[28] = molecular target: Neu5Ac(a2-3)Gal(b1-4)GlcNAc(b1-3)Gal(b1-4)GlcNAc(b1-3)Gal(b1-4)GlcNAc
How it was run: as §1

[29] = molecular target: Neu5Ac(a2-3)Gal(b1-4)GlcNAc(b1-3)Gal(b1-4)GlcNAc(b1-3)Gal(b1-4)GlcNAc(b1-2)Man(a1-3)[Neu5Ac(a2-3)Gal(b1-4)GlcNAc(b1-3)Gal(b1-4)GlcNAc(b1-3)Gal(b1-4)GlcNAc(b1-2)Man(a1-6)]GalNAc
How it was run: as §1

[30] = molecular target: Neu5Ac(a2-3)Gal(b1-4)GlcNAc(b1-3)Gal(b1-4)GlcNAc(b1-3)GalNAc
How it was run: as §1

[31] = molecular target: Neu5Ac(a2-3)Gal(b1-4)GlcNAc(b1-3)Gal(b1-4)GlcNAc(b1-3)[Neu5Ac(a2-3)Gal(b1-4)GlcNAc(b1-3)Gal(b1-4)GlcNAc(b1-6)]GalNAc
How it was run: as §1

[32] = molecular target: Neu5Ac(a2-3)Gal(b1-4)GlcNAc(b1-3)Gal(b1-4)GlcNAc(b1-6)[Gal(b1-3)]GalNAc
How it was run: as §1

[33] = molecular target: Neu5Ac(a2-3)Gal(b1-4)GlcNAc(b1-3)Gal(b1-4)[Fuc(a1-3)]GlcNAc
How it was run: as §1

[34] = molecular target: Neu5Ac(a2-3)Gal(b1-4)GlcNAc(b1-3)GalNAc
How it was run: as §1

[35] = molecular target: Neu5Ac(a2-3)Gal(b1-4)GlcNAc(b1-3)[Neu5Ac(a2-3)Gal(b1-4)GlcNAc(b1-6)]GalNAc
How it was run: as §1

[36] = molecular target: Neu5Ac(a2-3)Gal(b1-4)GlcNAc(b1-6)GalNAc
How it was run: as §1

[37] = molecular target: Neu5Ac(a2-3)Gal(b1-4)GlcNAc(b1-6)[Gal(b1-3)]GalNAc
How it was run: as §1

[38] = molecular target: Neu5Ac(a2-3)Gal(b1-4)GlcNAc(b1-6)[Neu5Ac(a2-3)Gal(b1-3)]GalNAc
How it was run: as §1

[39] = molecular target: Neu5Ac(a2-3)Gal(b1-4)GlcNAc6S
How it was run: as §1

[40] = molecular target: Neu5Ac(a2-3)Gal(b1-4)[Fuc(a1-3)]GlcNAc
How it was run: as §1

[41] = molecular target: Neu5Ac(a2-3)Gal(b1-4)[Fuc(a1-3)]GlcNAc(b1-2)Man
How it was run: as §1

[42] = molecular target: Neu5Ac(a2-3)Gal(b1-4)[Fuc(a1-3)]GlcNAc(b1-3)Gal
How it was run: as §1

[43] = molecular target: Neu5Ac(a2-3)Gal(b1-4)[Fuc(a1-3)]GlcNAc(b1-3)Gal(b1-4)GlcNAc
How it was run: as §1

[44] = molecular target: Neu5Ac(a2-3)Gal(b1-4)[Fuc(a1-3)]GlcNAc(b1-3)Gal(b1-4)[Fuc(a1-3)]GlcNAc(b1-3)Gal(b1-4)[Fuc(a1-3)]GlcNAc
How it was run: as §1

B1: Gal 10 (Homo sapiens), Q05315 (protein)
chain: MSLLPVPYTEAASLSTGSTVTIKGRPLVCFLNEPYLQVDFHTEMKEESDIVFHFQVCFGRRVVMNSREYGAWKQQVESKNMPFQDGQEFELSISVLPDKYQVMVNGQSSYTFDHRIKPEAVKMVQVWRDISLTKFNVSYLKR
With B1 the “glycan array binding signal (z-score)” value [1] was -0.378, the “glycan array binding signal (z-score)” value [2] was -0.333 and the “glycan array binding signal (z-score)” value [3] was -0.669. The “glycan array binding signal (z-score)” value [4] was -0.204, the “glycan array binding signal (z-score)” value [5] was -0.628 and the “glycan array binding signal (z-score)” value [6] was 1.14. For the same binder, the “glycan array binding signal (z-score)” value [7] was 0.079, the “glycan array binding signal (z-score)” value [8] was 0.274 and the “glycan array binding signal (z-score)” value [9] was -0.057. For the same binder, the “glycan array binding signal (z-score)” value [10] was 0.019, the “glycan array binding signal (z-score)” value [11] was -0.801 and the “glycan array binding signal (z-score)” value [12] was -0.322. For the same binder, the “glycan array binding signal (z-score)” value (Neu5Ac(a2-3)Gal(b1-4)Glc) was -0.086, the “glycan array binding signal (z-score)” value [13] was -0.362 and the “glycan array binding signal (z-score)” value [14] was 0.406. For the same binder, the “glycan array binding signal (z-score)” value [15] was -0.439, the “glycan array binding signal (z-score)” value [16] was -0.661 and the “glycan array binding signal (z-score)” value [17] was -0.033. For the same binder, the “glycan array binding signal (z-score)” value [18] was -0.07, the “glycan array binding signal (z-score)” value [19] was -0.529 and the “glycan array binding signal (z-score)” value [20] was 0.141. The “glycan array binding signal (z-score)” value [21] was -0.495, the “glycan array binding signal (z-score)” value [22] was 0.669 and the “glycan array binding signal (z-score)” value [23] was -0.743. The “glycan array binding signal (z-score)” value [24] was -0.51, the “glycan array binding signal (z-score)” value [25] was -0.304 and the “glycan array binding signal (z-score)” value [26] was -0.765. For the same binder, the “glycan array binding signal (z-score)” value [27] was -0.396, the “glycan array binding signal (z-score)” value [28] was 0.081 and the “glycan array binding signal (z-score)” value [29] was -0.403. The “glycan array binding signal (z-score)” value [30] was 2.09, the “glycan array binding signal (z-score)” value [31] was 0.429 and the “glycan array binding signal (z-score)” value [32] was -0.212. For the same binder, the “glycan array binding signal (z-score)” value [33] was -0.727, the “glycan array binding signal (z-score)” value [34] was 0.39 and the “glycan array binding signal (z-score)” value [35] was -0.154. For the same binder, the “glycan array binding signal (z-score)” value [36] was 0.918, the “glycan array binding signal (z-score)” value [37] was 0.181 and the “glycan array binding signal (z-score)” value [38] was -0.263. The “glycan array binding signal (z-score)” value [39] was -0.606, the “glycan array binding signal (z-score)” value [40] was -0.456 and the “glycan array binding signal (z-score)” value [41] was 2.57. For the same binder, the “glycan array binding signal (z-score)” value [42] was -0.034, the “glycan array binding signal (z-score)” value [43] was -0.167 and the “glycan array binding signal (z-score)” value [44] was 0.844.
